Holding throughout (experiment): protein microarray (ProtoArray v5.0), streptavidin-Alexa Fluor 647
Conditions in all cases: 3'-biotin; 20 mM Tris (pH 7.5), 5 mM MgCl2, 100 mM KCl, 0.1% Tween-20, A/T-rich and random oligonucleotide blockers; temperature not stated; high values mean tight binding

In assay [1] the test system is SART3 (human).
Assay [2] deals with SASP (human).
For assay [3], the system named is SAT2 (human).
The subject of assay [4] is SCAMP1 (human).
Assay [5] deals with SCAMP2 (human).
Assay [6] concerns SCAMP3 (human).
Assay [7] concerns SCAMP4 (human).
The test system of assay [8] is SCAND2 (human).
Assay [9] relates to SCFD1 (human).
The test system of assay [10] is SCG3 (human).
The subject of assay [11] is SCGB1A1 (human).
The test system of assay [12] is SCGB1C1 (human).
Assay [13] has as its system SCGB1D1 (human).
Assay [14] concerns SCGB2A1 (human).
Assay [15] deals with SCGB3A1 (human).
Assay [16] concerns SCGB3A2 (human).
For assay [17], the system named is SCIN (human).
The target in assay [18] is SCN5A (UniProt Q14524).
Assay [19] concerns SCO2 (human).
The test system of assay [20] is SCP2 (human).

Values joined by “and” are separate entries in the source; they are usually repeats but may differ in a detail not shown here. Identical values can stand only once. This is one part of the list. For some assays here: The source does not settle which construct or isoform was used.

Consider “GGGAGGCTGAGGCAGG [G4-1 biotinylated (PQS2)]”, for which the binding signal in assay [1] was -0.317 z-score; in [2], -0.308 z-score; in assay [3], -0.307 z-score; in assay [4], -0.315 z-score; in assay [5], -0.274 z-score; in [6] it was -0.324 z-score and -0.278 z-score. Also, the binding signal in [7] is -0.293 z-score; in assay [8], -0.306 z-score; in assay [9], -0.273 z-score; in assay [10], -0.324 z-score; in assay [11], -0.359 z-score; in assay [12], -0.361 z-score. Moreover, the binding signal in [13] is -0.31 z-score; in assay [14], -0.312 z-score; in [15], -0.342 z-score; in assay [16], -0.297 z-score; in assay [17], -0.312 z-score; in assay [18] it was -0.267 z-score. Moreover, the binding signal in assay [19] is -0.303 z-score; in assay [20], -0.351 z-score.
